Values from PubChem BioAssay AID602196 (INSERM, 2012).

- Purpose: 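Modifiers of cisplatin sensitivity in A549 cells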
- Cell system: human A549 lung cancer cells
- Reagents: siRNA pair against human genes
- Time to read-out: 48 h transfection before cisplatin; time from cisplatin to read-out not stated
- Treatment: cisplatin at a dose killing half of control-siRNA cells; exact dose and duration not given
- Measurement: 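Cisplatin cell death as a shift from the 50% death seen with control siRNA; siRNAs toxic or growth-blocking alone scored 0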
- Direction: two-siRNA summed score (-2 to +2): higher = both siRNAs protect from cisplatin killing; -2 means both sensitise; mean protection from cisplatin (shift in death) and protection from cisplatin (shift in death), siRNA C and protection from cisplatin (shift in death), siRNA D: higher = protection from cisplatin killing
- Call rule: 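Each siRNA scores 0 if harmful alone by LDH or WST-1, otherwise +1 if it reduces and -1 if it increases cisplatin killing; a gene is active when both siRNAs agree (sum +2 or -2)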
- Calls: active = both siRNAs shift cisplatin killing the same way; inactive = no consistent shift, or siRNA harmful alone
This is a random part of about 23,000 deposited reagents. Over the whole deposit, 455 (2%) are marked active. 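Active includes both protection and sensitisation; some change values fall well beyond the stated -50 to +50 range.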 A number with no mark means an inactive call. Reagent sequences are not shown. The record does not give: the amount of reagent.

gene knocked down	two-siRNA summed score (-2 to +2)	mean protection from cisplatin (shift in death) (%)	protection from cisplatin (shift in death), siRNA C (%)	protection from cisplatin (shift in death), siRNA D (%)
OR11H6	0	-1.4	0.2	-3.1
LOC440799	1	16.4	13.4	19.5
OR13C3	0	-7.2	5.6	-19.9
OR52A5	1	12.4	7.7	17.1
MARCHF8	0	8.1	14.2	2
NOD2	0	12.7	12.9	12.5
CALHM4	0	7.2	-8.9	23.4

Part of the list above, showing only “mean protection from cisplatin (shift in death) (%)”:
LOC440799 = 16.4
OR13C3 = -7.2
OR52A5 = 12.4
MARCHF8 = 8.1

The results go on:
gene knocked down	two-siRNA summed score (-2 to +2)	mean protection from cisplatin (shift in death) (%)	protection from cisplatin (shift in death), siRNA C (%)	protection from cisplatin (shift in death), siRNA D (%)
LAX1	1	13.2	5.8	20.6
HLA-DQA2	0	4.5	7.7	1.3
NCBP2AS2	0	5.8	2.7	8.9
MEGF10	0	12.8	18.4	7.2
LOC388799	0	26.6	30.6	22.6
TYMP	-1	-11.2	-18.7	-3.6
VPS52	1	7.1	-8.5	22.7
SLC23A2	0	7.5	-3.4	18.5
VPS51	0	5.1	9.4	0.9
DSN1	0	-5.4	-3.1	-7.7
RAPGEF2	0	2.4	-4.4	9.2
LOC388340	0	-9	-17.5	-0.6
PPP1R1C	1	13.6	9.3	17.9
MMP28	0	-3.1	-18.9	12.6
ACTR2	0	-4.9	-1	-8.9
INTS3	0	-5.8	-13.2	1.7
